Assay results

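Genome-wide siRNA knockdown in TC32 Ewing sarcoma cells, comparing luciferase light from an NR0B1-promoter reporter with a CMV-promoter reporter 48 hours after transfection.
Each siRNA was applied at 20 nM.
A z-score of the log NR0B1-over-CMV signal, less the median of siRNAs with the same seed; more negative means a stronger specific loss of the NR0B1 reporter.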

This is part of the screen; most of the strongest results are not listed here.
Sequences are the guide (antisense) strand, without overhang.

siRNA,gene,seed-corrected z-score
UCUUCGUUCCCGUUCUAGC,NEK10,0.2034
UACAUACCUACUGAAGCAC,ASNS,-0.2043
AACGAAAUACUUCUACUGC,AGXT2,-0.3071
UAGAGAUUCAUCAUCAUAG,SPATA17,0.7061
UUCUGGUUCUUUGUGAAGG,S100A11,-0.5446
UGAAGUAGCACCACCAUGC,ZNF324B,0.7264
UGUUAUUACGUUAUCAGGC,ARSA,0.9756
UUCCGCACAAGGGUUCACG,NDRG1,-0.1378
UCAGCGAUCAUGAGGAAGG,GRM4,-0.1009
UAAUUGUCGUUCACAAAGC,RABGGTB,-0.51
UGUCUAUUAAAUCAGAAAC,ZNF781,-0.7435
UGCAUUGUGAAGUAGAGCC,FKTN,-0.9302
UUUGUUCCUGAGUUCCUCC,CYB5R3,2.019
UUUGGUUUCAAAAGUCCGG,ISM1,-0.04371
UCUUCCGUAUCAGUAAUUC,MYOM1,1.374
AGUGAGAAAAUGCAGGGCC,SLC29A4P1,0.5068
UAAGCUACCAUGGAUCUCC,SIRT5,0.01617
AGUUGUAAAAGCUUAUAUC,C4orf22,1.946
ACAGAAAAUACUCUACUGC,LINC01588,0.2537
UUUGUAAGCACUCAAGAUA,SUSD4,1.382
UGUGCAUAAACUGAAGGCC,LRRC39,-0.5668
UUCCUCUGAACUUCCCUUG,OR2A4,-0.7311
UUCUGUUUCUGAGUACCGC,HEXB,-0.4231
UUAUCAAGAAUGUACUUUC,AXIN1,0.9687
UUUGAUUUGUAGCCGGUGC,PPP1R32,1.091
AUAUGUACUGAAACCGUUG,PNMA6A,0.2574
UGUUCUUGAAGAGUGCUGG,NPAS4,0.3368
UGCUGUACAGGCAUUCGCC,KLHDC7B,0.4609
UCCCUUUACAUUUUGACAG,FAM210A,-0.5795
UAUAAACAUACGGAGGAGU,PITX2,-1.545
AUAAGCUUGAGUGGUGUGG,FAM167A,0.2334
UAAUUUCAGAUGAAGAAUU,WDR73,-0.2588
AGAUUAGUGACCACCAUUC,LMOD3,0.2354
AUACUUACUAUGGAUUGAG,ZNF678,-0.1594
UAACUCGUCAUGAGAAAUC,BASP1,-0.3003
AAAACAUUUGCUUUGAUUG,CELF3,0.02092
UUUCCCUCAACCGCUUUGC,ISLR,0.3332
UUGAUGACUAGCAGAAUGG,OR52J3,-0.5398
AAAGAAUCUCUGAUAAAGC,DESI2,-0.3308
UGAUGGAGAAGUGUUCGGC,MEX3D,0.1487
AAGACAAUAAGCAUGAGCC,OR51G1,0.5621
UCAUUGACCAAUUUGUCCG,ATP1A3,0.8825
UAAGAGUCAAUGUCGUCAU,RAD9A,-1.072
UUUCCGGCAAAGAUCAACC,UBC,0.4682
GCAGGAGCUAUAGCCACAG,KRTAP6-2,0.297
UUCUCGUUGAAGUAGCCGU,NPFFR1,-0.2962
AUAAUCAGCAACUUCAUUC,SSR3,0.8839
UAUGGGCUCAGUACUUUCC,MRPL16,-0.4762
UUGUUUUCAAACACCACUG,FAM71D,0.3529
AUUGUUGUACUAUUCCUCC,FAM122B,-0.7155
AACUUUCGUAUUUCAGUCC,TBCEL,-0.1757
UUCAGAUUCCAUUCAAUGG,LCORL,0.31
AACUGAUCUAUUGAAGUUC,GSPT1,-0.249
UGAAUUUACAGUCGAACAC,REM1,0.7044
AAAGUUCUCCUGAUCAUAG,CRYBA1,-0.919
AAACUGCAUAGAUUUGAUG,KCNMA1,-0.06209
UUCUCGGAAACCAAUGGGC,CMYA5,0.6467
UAGGUCACAAUGUUGUCCC,CDH9,-0.1652
UCAAUGACGAGCUUGCUUC,ALG1,-0.0159
AGAAACAUAAGAUCCCGGG,C3orf80,-0.5794
UGAAUUUUCAUGCAGCCCU,AICDA,1.67
UUGUAAUCCAGAGUGGUCG,WDR53,-0.9807
UCUCCGCACAGAUUCACUC,VASP,-0.3827

For reference, 3 entries once more:

{"sirna": "UUCUCGUUGAAGUAGCCGU", "gene": "NPFFR1", "seed-corrected z-score": "-0.2962"}
{"sirna": "AGUGAGAAAAUGCAGGGCC", "gene": "SLC29A4P1", "seed-corrected z-score": "0.5068"}
{"sirna": "UAAGAGUCAAUGUCGUCAU", "gene": "RAD9A", "seed-corrected z-score": "-1.072"}

The results are deposited in PubChem (AID1159506; NCATS, 2015).